{
  "sequences": {"note": "The chains behind the UniProt entries cited, without tags or fusion partners. Where a name states a change or a piece, a line headed by the entry shows the natural chain unless it says otherwise.", "UniProt Q9BT49": "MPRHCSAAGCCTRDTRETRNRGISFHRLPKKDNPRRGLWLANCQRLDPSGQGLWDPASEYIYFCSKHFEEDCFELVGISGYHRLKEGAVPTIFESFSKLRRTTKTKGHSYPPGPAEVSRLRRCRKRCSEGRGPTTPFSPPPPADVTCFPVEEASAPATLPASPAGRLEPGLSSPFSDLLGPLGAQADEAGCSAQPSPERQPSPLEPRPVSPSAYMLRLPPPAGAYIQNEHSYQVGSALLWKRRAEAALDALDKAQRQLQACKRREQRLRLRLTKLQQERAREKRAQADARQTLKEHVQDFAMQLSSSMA", "UniProt Q96SD1, whole entry": "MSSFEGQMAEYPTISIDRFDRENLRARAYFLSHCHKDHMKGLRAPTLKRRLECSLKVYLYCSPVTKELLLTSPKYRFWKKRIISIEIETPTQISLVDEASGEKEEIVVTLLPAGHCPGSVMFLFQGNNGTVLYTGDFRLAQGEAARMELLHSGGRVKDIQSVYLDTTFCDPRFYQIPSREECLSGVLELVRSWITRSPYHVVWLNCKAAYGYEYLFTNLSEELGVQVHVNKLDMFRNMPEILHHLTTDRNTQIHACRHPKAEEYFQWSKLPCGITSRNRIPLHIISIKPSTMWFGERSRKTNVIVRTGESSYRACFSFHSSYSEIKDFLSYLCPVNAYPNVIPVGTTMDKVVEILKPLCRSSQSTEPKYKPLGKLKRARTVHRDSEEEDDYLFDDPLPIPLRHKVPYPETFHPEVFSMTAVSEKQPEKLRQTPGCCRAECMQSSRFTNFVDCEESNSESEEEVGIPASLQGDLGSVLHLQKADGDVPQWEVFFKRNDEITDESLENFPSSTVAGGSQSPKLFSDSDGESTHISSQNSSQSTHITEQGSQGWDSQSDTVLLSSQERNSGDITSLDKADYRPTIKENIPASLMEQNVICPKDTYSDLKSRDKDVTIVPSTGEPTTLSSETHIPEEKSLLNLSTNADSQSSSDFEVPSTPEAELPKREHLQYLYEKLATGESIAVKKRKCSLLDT", "UniProt Q9BTW9": "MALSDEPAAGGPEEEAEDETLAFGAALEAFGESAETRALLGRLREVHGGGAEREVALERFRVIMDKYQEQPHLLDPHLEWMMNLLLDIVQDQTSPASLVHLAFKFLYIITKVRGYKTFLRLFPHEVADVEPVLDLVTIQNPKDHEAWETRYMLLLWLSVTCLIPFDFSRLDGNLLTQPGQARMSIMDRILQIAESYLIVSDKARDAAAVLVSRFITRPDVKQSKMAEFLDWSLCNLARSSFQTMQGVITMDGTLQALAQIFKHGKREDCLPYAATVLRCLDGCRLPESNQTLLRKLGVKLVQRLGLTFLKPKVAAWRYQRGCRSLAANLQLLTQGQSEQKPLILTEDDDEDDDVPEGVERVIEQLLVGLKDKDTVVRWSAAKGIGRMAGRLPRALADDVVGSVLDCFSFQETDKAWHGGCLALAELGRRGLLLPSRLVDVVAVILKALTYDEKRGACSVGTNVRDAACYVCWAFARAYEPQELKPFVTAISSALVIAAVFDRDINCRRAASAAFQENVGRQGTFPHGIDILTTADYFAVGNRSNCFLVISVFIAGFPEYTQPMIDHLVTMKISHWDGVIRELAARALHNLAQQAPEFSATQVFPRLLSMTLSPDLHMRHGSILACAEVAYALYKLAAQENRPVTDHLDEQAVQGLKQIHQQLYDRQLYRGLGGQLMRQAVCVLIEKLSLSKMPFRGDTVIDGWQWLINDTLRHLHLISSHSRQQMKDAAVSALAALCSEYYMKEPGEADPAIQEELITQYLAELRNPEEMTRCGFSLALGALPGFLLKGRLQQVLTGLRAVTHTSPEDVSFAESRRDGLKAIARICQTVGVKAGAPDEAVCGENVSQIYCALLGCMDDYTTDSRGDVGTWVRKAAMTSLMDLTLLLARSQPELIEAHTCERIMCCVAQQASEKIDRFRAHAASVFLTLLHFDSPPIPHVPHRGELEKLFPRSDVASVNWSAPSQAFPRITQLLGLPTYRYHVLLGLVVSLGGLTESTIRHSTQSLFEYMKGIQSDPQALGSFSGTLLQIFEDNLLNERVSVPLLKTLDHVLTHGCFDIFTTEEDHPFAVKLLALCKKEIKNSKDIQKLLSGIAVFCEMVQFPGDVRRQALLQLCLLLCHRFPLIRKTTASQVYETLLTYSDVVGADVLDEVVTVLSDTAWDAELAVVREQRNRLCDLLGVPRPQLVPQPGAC", "UniProt Q99728": "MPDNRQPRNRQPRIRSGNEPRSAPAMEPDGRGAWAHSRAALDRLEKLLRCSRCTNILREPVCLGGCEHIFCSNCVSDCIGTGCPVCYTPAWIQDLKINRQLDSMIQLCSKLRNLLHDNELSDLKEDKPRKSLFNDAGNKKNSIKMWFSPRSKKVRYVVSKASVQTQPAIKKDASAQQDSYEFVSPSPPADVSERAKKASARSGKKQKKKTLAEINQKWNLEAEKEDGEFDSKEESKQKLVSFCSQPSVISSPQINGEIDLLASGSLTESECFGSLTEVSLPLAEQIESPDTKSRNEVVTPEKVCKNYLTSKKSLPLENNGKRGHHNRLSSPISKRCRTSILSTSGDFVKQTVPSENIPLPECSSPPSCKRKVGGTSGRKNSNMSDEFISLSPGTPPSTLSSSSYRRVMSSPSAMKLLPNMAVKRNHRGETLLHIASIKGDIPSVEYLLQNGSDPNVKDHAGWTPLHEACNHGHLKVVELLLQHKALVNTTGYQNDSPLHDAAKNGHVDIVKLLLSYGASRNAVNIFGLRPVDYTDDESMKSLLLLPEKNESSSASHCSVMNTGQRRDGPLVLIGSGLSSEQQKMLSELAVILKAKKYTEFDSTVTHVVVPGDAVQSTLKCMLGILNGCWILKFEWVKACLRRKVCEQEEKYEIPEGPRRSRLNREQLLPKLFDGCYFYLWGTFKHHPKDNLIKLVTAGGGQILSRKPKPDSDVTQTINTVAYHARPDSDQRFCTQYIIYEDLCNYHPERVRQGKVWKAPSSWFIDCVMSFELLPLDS", "UniProt Q99638": "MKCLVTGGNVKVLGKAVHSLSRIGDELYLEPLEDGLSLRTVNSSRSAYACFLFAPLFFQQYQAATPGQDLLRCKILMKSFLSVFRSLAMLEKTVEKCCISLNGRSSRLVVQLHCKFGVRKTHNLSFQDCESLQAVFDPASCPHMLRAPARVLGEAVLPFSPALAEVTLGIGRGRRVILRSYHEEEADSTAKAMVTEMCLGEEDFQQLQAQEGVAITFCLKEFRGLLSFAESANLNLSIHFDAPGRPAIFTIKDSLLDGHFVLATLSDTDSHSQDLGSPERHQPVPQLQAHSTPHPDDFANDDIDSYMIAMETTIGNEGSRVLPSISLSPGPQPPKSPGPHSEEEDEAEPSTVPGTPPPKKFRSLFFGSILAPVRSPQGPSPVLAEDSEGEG", "UniProt Q9BU20": "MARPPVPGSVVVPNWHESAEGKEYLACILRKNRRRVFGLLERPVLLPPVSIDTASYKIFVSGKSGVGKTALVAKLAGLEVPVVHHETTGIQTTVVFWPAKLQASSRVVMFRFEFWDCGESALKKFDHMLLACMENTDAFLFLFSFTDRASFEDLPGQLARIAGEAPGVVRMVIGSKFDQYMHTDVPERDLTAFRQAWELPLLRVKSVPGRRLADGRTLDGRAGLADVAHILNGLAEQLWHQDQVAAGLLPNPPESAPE", "UniProt Q9BU02": "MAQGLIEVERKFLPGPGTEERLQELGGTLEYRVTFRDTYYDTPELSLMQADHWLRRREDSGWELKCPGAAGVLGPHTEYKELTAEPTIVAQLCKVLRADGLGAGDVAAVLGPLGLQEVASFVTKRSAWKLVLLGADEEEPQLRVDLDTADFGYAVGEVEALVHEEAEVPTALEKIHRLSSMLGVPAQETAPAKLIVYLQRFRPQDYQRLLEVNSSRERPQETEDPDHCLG", "UniProt Q9BQ89": "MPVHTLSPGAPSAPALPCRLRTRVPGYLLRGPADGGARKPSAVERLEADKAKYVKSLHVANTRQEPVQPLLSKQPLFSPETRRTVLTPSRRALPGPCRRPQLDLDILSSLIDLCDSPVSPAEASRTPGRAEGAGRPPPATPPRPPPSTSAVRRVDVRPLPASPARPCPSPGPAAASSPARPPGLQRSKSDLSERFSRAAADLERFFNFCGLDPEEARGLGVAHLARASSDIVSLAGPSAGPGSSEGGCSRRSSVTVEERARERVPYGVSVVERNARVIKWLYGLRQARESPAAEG", "UniProt Q96SZ5, whole entry": "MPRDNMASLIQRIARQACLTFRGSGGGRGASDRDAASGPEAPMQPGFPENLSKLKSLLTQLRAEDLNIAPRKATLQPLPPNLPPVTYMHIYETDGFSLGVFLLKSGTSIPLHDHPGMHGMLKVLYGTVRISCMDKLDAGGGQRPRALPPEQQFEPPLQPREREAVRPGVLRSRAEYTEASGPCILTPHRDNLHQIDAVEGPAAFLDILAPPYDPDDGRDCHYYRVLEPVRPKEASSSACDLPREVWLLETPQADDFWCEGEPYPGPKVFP", "UniProt Q99829": "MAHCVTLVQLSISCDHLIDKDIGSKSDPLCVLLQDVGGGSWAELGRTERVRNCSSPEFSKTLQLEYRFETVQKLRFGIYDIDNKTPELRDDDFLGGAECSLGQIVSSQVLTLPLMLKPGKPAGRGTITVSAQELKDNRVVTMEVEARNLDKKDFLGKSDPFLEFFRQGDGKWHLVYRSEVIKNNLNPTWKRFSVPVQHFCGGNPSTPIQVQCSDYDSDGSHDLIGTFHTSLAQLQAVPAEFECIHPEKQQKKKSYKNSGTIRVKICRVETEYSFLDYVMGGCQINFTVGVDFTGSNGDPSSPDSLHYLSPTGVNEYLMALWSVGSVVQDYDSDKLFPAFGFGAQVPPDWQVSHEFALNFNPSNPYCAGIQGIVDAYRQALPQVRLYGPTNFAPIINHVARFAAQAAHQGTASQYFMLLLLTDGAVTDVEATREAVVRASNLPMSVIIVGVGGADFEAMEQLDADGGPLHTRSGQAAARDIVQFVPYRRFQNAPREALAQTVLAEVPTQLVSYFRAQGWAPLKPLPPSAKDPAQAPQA", "UniProt Q96ST3": "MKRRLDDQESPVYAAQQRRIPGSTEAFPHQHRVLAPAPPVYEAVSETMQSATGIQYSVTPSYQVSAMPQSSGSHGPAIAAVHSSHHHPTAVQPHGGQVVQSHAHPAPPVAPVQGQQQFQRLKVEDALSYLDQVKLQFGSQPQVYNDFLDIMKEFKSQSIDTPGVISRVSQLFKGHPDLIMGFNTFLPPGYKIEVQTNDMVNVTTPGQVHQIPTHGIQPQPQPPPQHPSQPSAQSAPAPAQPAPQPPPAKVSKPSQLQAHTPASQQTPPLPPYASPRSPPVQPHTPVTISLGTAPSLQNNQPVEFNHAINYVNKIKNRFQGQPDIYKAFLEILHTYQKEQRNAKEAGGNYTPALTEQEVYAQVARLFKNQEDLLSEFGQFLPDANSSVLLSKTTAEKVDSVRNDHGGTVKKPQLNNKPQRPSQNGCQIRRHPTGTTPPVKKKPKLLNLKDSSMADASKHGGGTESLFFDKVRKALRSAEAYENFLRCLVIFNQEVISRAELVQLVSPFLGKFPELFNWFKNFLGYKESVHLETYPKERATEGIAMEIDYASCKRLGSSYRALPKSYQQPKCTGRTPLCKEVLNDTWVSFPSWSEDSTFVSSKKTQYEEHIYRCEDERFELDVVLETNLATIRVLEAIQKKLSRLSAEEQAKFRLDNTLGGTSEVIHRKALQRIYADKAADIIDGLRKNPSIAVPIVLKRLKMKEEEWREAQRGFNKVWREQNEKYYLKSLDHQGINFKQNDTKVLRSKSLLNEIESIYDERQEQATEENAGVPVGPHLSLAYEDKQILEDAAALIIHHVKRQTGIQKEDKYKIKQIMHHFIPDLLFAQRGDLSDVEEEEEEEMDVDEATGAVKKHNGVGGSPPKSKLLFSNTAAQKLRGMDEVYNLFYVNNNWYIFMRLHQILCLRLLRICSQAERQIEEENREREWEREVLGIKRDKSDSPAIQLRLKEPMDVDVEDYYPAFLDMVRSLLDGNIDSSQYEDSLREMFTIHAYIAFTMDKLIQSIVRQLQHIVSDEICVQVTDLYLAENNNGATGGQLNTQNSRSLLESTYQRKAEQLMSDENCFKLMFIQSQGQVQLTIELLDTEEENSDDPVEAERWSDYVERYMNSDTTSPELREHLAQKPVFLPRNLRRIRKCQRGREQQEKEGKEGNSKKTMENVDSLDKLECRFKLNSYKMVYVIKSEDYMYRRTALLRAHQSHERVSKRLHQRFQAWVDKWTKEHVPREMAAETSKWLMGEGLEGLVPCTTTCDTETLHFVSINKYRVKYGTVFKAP", "UniProt Q96SI1": "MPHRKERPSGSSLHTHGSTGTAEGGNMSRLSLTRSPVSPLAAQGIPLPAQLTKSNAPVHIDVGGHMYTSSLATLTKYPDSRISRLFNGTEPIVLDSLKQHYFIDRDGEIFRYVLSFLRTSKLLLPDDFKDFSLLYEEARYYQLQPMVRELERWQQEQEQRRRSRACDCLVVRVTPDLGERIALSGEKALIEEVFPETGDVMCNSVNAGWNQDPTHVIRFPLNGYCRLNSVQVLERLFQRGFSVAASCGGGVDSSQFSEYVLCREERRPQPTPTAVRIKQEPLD"},
  "source": "the supplement of paper PMC12819154",
  "about": "“High-throughput peptide-centric local stability assay extends protein–ligand identification to membrane proteins, tissues and bacteria” (Nature Structural & Molecular Biology, 2025)",
  "note": "This is one part of the list. Small differences around the control level are noise.",
  "data": [
    {"compound": "Cc1nc(Nc2ncc(C(=O)Nc3c(C)cccc3Cl)s2)cc(N2CCN(CCO)CC2)n1 [dasatinib]", "assay": "log2 fold change of tryptic peptide abundance, ligand vs vehicle (limited proteolysis) (log2 ratio); higher = more trypsin-susceptible (destabilized)", "settings": "ligand concentration: 5 uM; sample: K562 cleared lysate", "values": [
      {"target": "CDC6 (peptide sequence: LVLNTAVPDRLPAR, peptide start residue: 162) (UniProt Q99741)", "log2 fold change": -0.251},
      {"target": "THAP7 (peptide sequence: LKEGAVPTIFESFSK, peptide start residue: 84) (UniProt Q9BT49)", "log2 fold change": 0.148},
      {"target": "CABLES2 (peptide sequence: FLYPTNALVTHK, peptide start residue: 245) (UniProt Q9BTV7)", "log2 fold change": 0.11},
      {"target": "RNF2 (peptide sequence: VNKPMELYYAPTKEHK, peptide start residue: 321) (UniProt Q99496)", "log2 fold change": 0.12},
      {"target": "LPIN3 (peptide sequence: WDDKVVISDIDGTITK, peptide start residue: 636) (UniProt Q9BQK8)", "log2 fold change": 0.345},
      {"target": "MPHOSPH9 (peptide sequence: EISGVEDWK, peptide start residue: 477) (UniProt Q99550)", "log2 fold change": -0.536},
      {"target": "DCLRE1C (peptide sequence: IPLHIISIKPSTMWFGER, peptide start residue: 280) (UniProt Q96SD1)", "log2 fold change": -0.408},
      {"target": "MIPEP (peptide sequence: EAAEEACR, peptide start residue: 136) (UniProt Q99797)", "log2 fold change": -0.496},
      {"target": "TBCD (peptide sequence: GDVGTWVR, peptide start residue: 865) (UniProt Q9BTW9)", "log2 fold change": -0.421},
      {"target": "PLEKHF1 (peptide sequence: QEWISHIEECVRR, peptide start residue: 120) (UniProt Q96S99)", "log2 fold change": -0.355},
      {"target": "SIKE1 (peptide sequence: ENSMDTASQAIK, peptide start residue: 196) (UniProt Q9BRV8)", "log2 fold change": 0.479},
      {"target": "PIK3R4 (peptide sequence: QISTADVYCK, peptide start residue: 685) (UniProt Q99570)", "log2 fold change": -0.359},
      {"target": "UniProt Q9BT25 (peptide sequence: TISKKPESTSFSAPR, peptide start residue: 122)", "log2 fold change": -0.156},
      {"target": "BARD1 (peptide sequence: ASVQTQPAIKK, peptide start residue: 161) (UniProt Q99728)", "log2 fold change": -0.374},
      {"target": "PRMT1 (peptide sequence: LDHVVTIIK, peptide start residue: 135) (UniProt Q99873)", "log2 fold change": 0.566},
      {"target": "UniProt Q9BTV6 (peptide sequence: EDNDGEGHARPQSGMK, peptide start residue: 382)", "log2 fold change": 0.481},
      {"target": "RAD9A (peptide sequence: TVEKCCISLNGR, peptide start residue: 93) (UniProt Q99638)", "log2 fold change": -0.356},
      {"target": "CPLANE2 (peptide sequence: IAGEAPGVVR, peptide start residue: 161) (UniProt Q9BU20)", "log2 fold change": -0.236},
      {"target": "THTPA (peptide sequence: LQELGGTLEYR, peptide start residue: 22) (UniProt Q9BU02)", "log2 fold change": 0.114},
      {"target": "DDX50 (peptide sequence: NGIDILVGTPGR, peptide start residue: 307) (UniProt Q9BQ39)", "log2 fold change": 0.126},
      {"target": "UniProt Q99551 (peptide sequence: KIVTSDLEIVNILER, peptide start residue: 148)", "log2 fold change": 0.175},
      {"target": "FAM110A (peptide sequence: PVHTLSPGAPSAPALPCR, peptide start residue: 2) (UniProt Q9BQ89)", "log2 fold change": 0.466},
      {"target": "ADO (peptide sequence: QACLTFRGSGGGR, peptide start residue: 16) (UniProt Q96SZ5)", "log2 fold change": 0.726},
      {"target": "CPNE1 (peptide sequence: VVTMEVEAR, peptide start residue: 139) (UniProt Q99829)", "log2 fold change": 0.24},
      {"target": "SIN3A (peptide sequence: RLDDQESPVYAAQQR, peptide start residue: 4) (UniProt Q96ST3)", "log2 fold change": 0.177},
      {"target": "UniProt Q9BRT3 (peptide sequence: EQYPGIEIESR, peptide start residue: 48)", "log2 fold change": -0.124},
      {"target": "PPP1R9B (peptide sequence: LLDKISELEGNLQTLR, peptide start residue: 797) (UniProt Q96SB3)", "log2 fold change": -0.286},
      {"target": "KCTD15 (peptide sequence: YYQLQPMVR, peptide start residue: 140) (UniProt Q96SI1)", "log2 fold change": 0.349}
    ]}
  ]
}
